By AC50 is commonly meant the concentration at which the activity in the assay is half-maximal.

This experiment can be described thus: qHTS Assay to Find Inhibitors of Chronic Active B-Cell Receptor Signaling. Particulars: ABC-DLBCL IkBa-CBG/CBR reporter, luminescence ratio (green luciferase fused to IkBa over red control in TMD8 lymphoma cells), 4 h. An outline of the steps: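 TMD8 human ABC-DLBCL cells with doxycycline-inducible IκBα–green luciferase fusion and unfused red luciferase, in 0.5% FBS medium; compounds up to 46 uM, 4 h at 37C. Green/red luminescence ratio, filter-overlap corrected, fitted to concentration-response curves.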

[1] abbreviates: measured here: CBR red luminescence, cell number.
[2] abbreviates: measured here: IkBa-CBG green luminescence.

Each structure is given as a SMILES string. The list shows a part of the results. The main result of the screen is listed elsewhere. These columns were measured beside it and carry no call. Most of these compounds were active or inconclusive in the main read-out, so they are no random draw. Words in brackets tell the shape of the fitted curve; partial curves, single points and poor fits give uncertain potencies.

For the compound `Cc1ccn2cc(-c3cccc([N+](=O)[O-])c3)nc2c1`, under setting [1], the half-maximal activity concentration (AC50) is 17.8 µM [falling, single point].

On to `COc1cc(/C=N/NC(=O)Nc2ccccc2)ccc1OC(C)=O`, for which the concentration at half-maximal activity (AC50) under setting [2] was 23.1 µM [falling, single point]. For `O=C(Nc1ccc(F)cc1)N1CCN2C(=O)c3ccccc3C12c1ccccc1` (centres undefined), under setting [1], the AC50 is 16.4 µM [falling, single point]. The same measure, in the same setting: as for `COC(=O)c1cc2nc(-c3ccc(OC)c(OC)c3)cc(C(F)(F)F)n2n1`, the figure is 10 µM [rising, single point]. For `O=C(O)c1nn2cc(CCO)cnc2c1Cl`, the AC50 under setting [1] is 14.1 µM [falling, single point]. The same measure, in the same setting: for `COc1ccc(F)cc1C(=O)C1CCCN(Cc2c[nH]c3ccccc23)C1` (centres undefined) the value was 7.08 µM [falling, partial curve]; for `CN1/C(=c2/s/c(=C3/C(=O)N(c4ccccc4)NC3=Nc3ccccc3)n(C)c2=O)C(C)(C)c2ccccc21`, 6.51 µM [falling, single point].

For `COc1ccccc1CN(Cc1cc2cc(C)cc(C)c2[nH]c1=O)Cc1nnnn1CC1CCCO1` (centres undefined), under setting [1], the half-maximal activity concentration (AC50) was 14.1 µM [falling, single point].

As for `COc1ccc(CNC(=O)COC(=O)c2cnccn2)cc1`, the AC50 under setting [1] is 1.03 µM [rising, full curve, poor fit].

For the compound `O=C(CC(Nc1ccc(F)cc1)c1ccccc1)c1ccccc1` (centres undefined), under setting [1], the AC50 is 1.84 µM [falling, partial curve, poor fit].

Regarding `CCOc1cc(N2CCOCC2)c(OCC)cc1NC(=O)c1ccc2ncsc2c1`, the concentration at half-maximal activity (AC50) under setting [1] was 2.91 µM [rising, partial curve, poor fit]. As to `O=C(NCCN1CCOCC1)c1cccnc1SCc1ccccc1Cl`, the AC50 under setting [1] was 2.51 µM [rising, partial curve, poor fit].

Regarding `CCCc1[nH]nc2c1C(C1CC=CCC1)C(C#N)=C(N)O2` (centres undefined), the concentration at half-maximal activity (AC50) under setting [1] is 16.4 µM [falling, single point]. Same read-out and setting: for `COc1ccccc1NC(=S)N1CCCC1` the value was 7.31 µM [rising, partial curve]. For `CN(C)/N=C/c1c(O)ccc2ccccc12`, under setting [1], the concentration at half-maximal activity (AC50) is 20.6 µM [rising, single point]. On the same count and under the same terms, for `COc1ccc(CN(C)C(=O)C(Cc2ccccc2)NC(=O)c2ccccc2)cc1F` (centres undefined) the value was 20.6 µM [falling, partial curve]. Regarding `CN(C)c1cccc(/C=C(\C#N)c2ccccc2)c1`, the AC50 was 25.1 µM [falling, single point] under setting [1] and 22.4 µM [falling, single point] under setting [2].

As to `COc1cc(S(=O)(=O)n2ccc(C)n2)ccc1Cl`, the concentration at half-maximal activity (AC50) under setting [1] is 11.2 µM [rising, partial curve].

For the origin of these results see PubChem BioAssay AID493014 (National Center for Advancing Translational Sciences (NCATS), 2011).
